Test results published in patent publication US6455242B1, “Color photographic element containing speed improving compound” (Eastman Kodak Company, priority 1998, dated 2002).

Key:
[1] = Multilayer film ML-C, Kodak ECN-2 Process; conditions: added to Layer 6 at 0.022, check ML-C-1
[2] = Multilayer film ML-A, stepped exposure, KODAK FLEXICOLOR (C-41) process; conditions: for Granularity: green layer, neutral exposure, RMS
[3] = Multilayer film ML-B, stepped exposure, KODAK FLEXICOLOR (C-41) process
[4] = addenda in L7/L8 at 0.8 mmol/molAg, DIR-3 in L10/L11, check ML-A-1
[5] = addenda in L7/L8 at 0.8 mmol/molAg, DIR-4 in L10/L11, check ML-A-2
[6] = addenda in L7/L8 at 8 mmol/molAg, DIR-3 in L10/L11, check ML-A-1
[7] = addenda in L7/L8 at 8 mmol/molAg, DIR-4 in L10/L11, check ML-A-2
[8] = addenda in L7/L8 at 8 mmol/molAg, DIR-3 in L10/L11
[9] = addenda in L7/L8 at 8 mmol/molAg, DIR-4 in L10/L11
[10] = Layer 9, solid particle dispersion, N,N-dibutyllauramide added as separate dispersion at 0.135, check ML-B-1
[11] = Layer 9 at 0.082 mmol/m^2 (6.8 mmol/mol silver), dispersed in three times own weight of N,N-dibutyllauramide, check ML-B-1
[12] = Layer 9 at 0.082 mmol/m^2, dispersed in three times own weight of N,N-dibutyllauramide
[13] = Layer 9 at 0.082 mmol/m^2, dispersed in three times own weight of N,N-dibutyllauramide, check ML-B-1
[14] = Layer 9, dispersed in twice own weight of (Z)-9-octadecen-1-ol, check ML-B-1
[15] = Layer 9, dispersed in twice own weight of ortho-methylphenyl benzoate, check ML-B-1
[16] = Layer 9 at 0.082 mmol/m^2, dispersed in twice own weight of N,N-dibutyllauramide, check ML-B-1
[17] = added to Layer 10 (Yellow filter layer) at 0.029 g/m^2, check ML-B-1

CCCCCCCCCCCCCCOc1ncnc2nc[nH]c12 [A, 6-(tetradecyloxy)purine]
Speed of Neutral [1]: 0.19 stops | Speed of G Only vs check [2, 4]: 0.00 stops | Speed of Neutral vs check [2, 4]: 0.13 stops | Speed of G Only vs check [2, 5]: 0.04 stops | Speed of Neutral vs check [2, 5]: 0.07 stops | Speed of G Only vs check [2, 6]: 0.31 stops | Speed of Neutral vs check [2, 6]: 0.43 stops | Speed of G Only vs check [2, 7]: 0.30 stops | Speed of Neutral vs check [2, 7]: 0.50 stops | Granularity ([2]; addenda in L7/L8 at 0.8 mmol/molAg, DIR-3 in L10/L11): 15.4 × 10^3 | Granularity ([2]; addenda in L7/L8 at 0.8 mmol/molAg, DIR-4 in L10/L11): 16.6 × 10^3 | Granularity [2, 8]: 14.9 × 10^3 | Granularity [2, 9]: 15.5 × 10^3 | Granularity ([3]; Layer 9, solid particle dispersion, N,N-dibutyllauramide added as separate dispersion at 0.135): 19.3 ×10^3 | Speed of G Only [3, 10]: 0.27 stops | Speed of Neutral [3, 10]: 0.30 stops | Speed of Neutral [3, 11]: 0.37 stops | Granularity [3, 12]: 18.3 ×10^3 | Speed of G Only [3, 13]: 0.37 stops

CCCCCCCCCCOc1ncnc2[nH]cnc12 [CC-1, reference compound]
Speed of G Only vs check [2, 6]: −0.73 stops | Speed of Neutral vs check [2, 6]: −0.83 stops | Speed of G Only vs check [2, 7]: −0.76 stops | Speed of Neutral vs check [2, 7]: −1.57 stops | Granularity [2, 8]: 12.6 × 10^3 | Granularity [2, 9]: 9.4 × 10^3 | Speed of Neutral [3, 11]: −0.20 stops | Granularity [3, 12]: 23.4 ×10^3 | Speed of G Only [3, 13]: −0.17 stops

CCCCCCCCCCCCCCOc1ncnc2[nH]ncc12 [O]
Speed of Neutral [3, 11]: 0.13 stops | Granularity [3, 12]: 16.8 ×10^3 | Speed of G Only [3, 13]: 0.17 stops

CCCCCCCCCN(CCCCCCCCC)c1ncnc2[nH]cnc12 [U]
Speed of Neutral [3, 11]: 0.13 stops | Granularity [3, 12]: 21.0 ×10^3 | Speed of G Only [3, 13]: 0.20 stops

CCCCCCCCC(CCCCCC)CCc1ncnc2[nH]cnc12 (stereo not shown) [X]
Granularity ([3]; Layer 9, dispersed in twice own weight of (Z)-9-octadecen-1-ol): 20.2 ×10^3 | Speed of G Only [3, 14]: 0.17 stops | Speed of Neutral [3, 14]: 0.17 stops | Granularity ([3]; Layer 9, dispersed in twice own weight of ortho-methylphenyl benzoate): 18.6 ×10^3 | Speed of G Only [3, 15]: 0.03 stops | Speed of Neutral [3, 15]: 0.00 stops | Speed of Neutral [3, 11]: 0.27 stops | Granularity [3, 12]: 20.1 ×10^3 | Speed of G Only [3, 13]: 0.27 stops | Granularity ([3]; Layer 9 at 0.082 mmol/m^2, dispersed in twice own weight of N,N-dibutyllauramide): 18.9 ×10^3 | Speed of G Only [3, 16]: 0.27 stops | Speed of Neutral [3, 16]: 0.23 stops | Speed of G Only ([3]; Layer 9 at 0.082 mmol/m^2, M-1 in Layer 9 replaced with M-12 at 0.054 (ML-B-56 without addenda gives 0.00)): 0.10 stops | Speed of Neutral ([3]; Layer 9 at 0.082 mmol/m^2, M-1 in Layer 9 replaced with M-12 at 0.054 (ML-B-56 without addenda gives 0.03)): 0.10 stops | Granularity ([3]; Layer 9 at 0.082 mmol/m^2, M-1 in Layer 9 replaced with M-12 at 0.054 (ML-B-56 without addenda gives 19.0)): 19.3 ×10^3 | Granularity ([3]; added to Layer 10 (Yellow filter layer) at 0.029 g/m^2): 18.7 ×10^3 | Speed of G Only [3, 17]: 0.13 stops | Speed of Neutral [3, 17]: 0.07 stops

CCCCCCCCCCCCCCCCOc1ncnc2[nH]cnc12 [Y]
Speed of Neutral [3, 11]: 0.40 stops | Granularity [3, 12]: 20.1 ×10^3 | Speed of G Only [3, 13]: 0.40 stops

CCCCCCCCCCCCCCCCCCOc1ncnc2[nH]cnc12 [Z]
Speed of Neutral [3, 11]: 0.40 stops | Granularity [3, 12]: 20.9 ×10^3 | Speed of G Only [3, 13]: 0.43 stops
